## Screening data, single-dose tests

By UniProt entry, the sequences of proteins in these tests, tags left out. Residues count along the entry.
UniProt I6X8D2, whole entry: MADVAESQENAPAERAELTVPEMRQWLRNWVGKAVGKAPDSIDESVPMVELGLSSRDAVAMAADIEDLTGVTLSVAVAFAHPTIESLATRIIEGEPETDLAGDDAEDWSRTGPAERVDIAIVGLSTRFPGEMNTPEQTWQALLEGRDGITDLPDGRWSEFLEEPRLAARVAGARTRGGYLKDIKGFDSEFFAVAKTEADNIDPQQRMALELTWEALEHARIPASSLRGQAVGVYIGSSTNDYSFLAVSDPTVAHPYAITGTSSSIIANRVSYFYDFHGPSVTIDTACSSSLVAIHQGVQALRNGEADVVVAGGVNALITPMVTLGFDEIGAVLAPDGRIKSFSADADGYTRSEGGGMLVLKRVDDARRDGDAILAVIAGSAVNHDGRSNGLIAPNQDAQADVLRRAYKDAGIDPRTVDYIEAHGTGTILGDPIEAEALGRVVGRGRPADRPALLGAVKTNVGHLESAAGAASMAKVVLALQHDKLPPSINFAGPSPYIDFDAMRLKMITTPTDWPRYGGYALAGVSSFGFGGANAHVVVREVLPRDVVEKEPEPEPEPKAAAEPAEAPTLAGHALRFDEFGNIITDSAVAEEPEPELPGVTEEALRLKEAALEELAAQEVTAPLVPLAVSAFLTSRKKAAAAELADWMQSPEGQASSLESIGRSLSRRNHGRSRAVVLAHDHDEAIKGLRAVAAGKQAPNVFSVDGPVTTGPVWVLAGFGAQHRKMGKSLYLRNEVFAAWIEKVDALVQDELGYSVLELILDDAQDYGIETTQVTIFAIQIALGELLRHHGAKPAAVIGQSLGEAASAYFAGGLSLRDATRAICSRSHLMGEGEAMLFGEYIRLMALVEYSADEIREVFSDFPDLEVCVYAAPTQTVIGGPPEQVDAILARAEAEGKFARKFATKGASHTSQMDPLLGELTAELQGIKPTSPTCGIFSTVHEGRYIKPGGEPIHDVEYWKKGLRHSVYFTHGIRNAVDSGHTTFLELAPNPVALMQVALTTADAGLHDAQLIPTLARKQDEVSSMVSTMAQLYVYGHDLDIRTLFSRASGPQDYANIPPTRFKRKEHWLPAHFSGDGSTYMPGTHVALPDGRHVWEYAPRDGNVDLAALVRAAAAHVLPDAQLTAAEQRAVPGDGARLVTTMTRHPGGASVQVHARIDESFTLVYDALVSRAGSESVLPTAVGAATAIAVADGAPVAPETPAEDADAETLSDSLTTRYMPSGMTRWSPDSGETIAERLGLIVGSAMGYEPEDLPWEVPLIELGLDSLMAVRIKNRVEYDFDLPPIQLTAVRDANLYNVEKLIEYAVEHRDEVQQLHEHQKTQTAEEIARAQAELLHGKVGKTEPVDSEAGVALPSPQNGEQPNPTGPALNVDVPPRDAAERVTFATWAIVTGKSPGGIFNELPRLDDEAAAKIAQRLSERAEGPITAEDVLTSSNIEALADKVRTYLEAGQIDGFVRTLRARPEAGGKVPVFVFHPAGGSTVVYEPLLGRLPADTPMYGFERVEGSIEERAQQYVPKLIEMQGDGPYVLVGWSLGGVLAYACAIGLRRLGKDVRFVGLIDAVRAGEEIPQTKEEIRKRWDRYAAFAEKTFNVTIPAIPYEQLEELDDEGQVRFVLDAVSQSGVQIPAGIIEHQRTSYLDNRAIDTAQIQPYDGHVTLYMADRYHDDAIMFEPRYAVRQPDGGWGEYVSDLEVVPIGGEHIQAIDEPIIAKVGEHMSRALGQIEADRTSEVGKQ
UniProt P9WFT3, whole entry: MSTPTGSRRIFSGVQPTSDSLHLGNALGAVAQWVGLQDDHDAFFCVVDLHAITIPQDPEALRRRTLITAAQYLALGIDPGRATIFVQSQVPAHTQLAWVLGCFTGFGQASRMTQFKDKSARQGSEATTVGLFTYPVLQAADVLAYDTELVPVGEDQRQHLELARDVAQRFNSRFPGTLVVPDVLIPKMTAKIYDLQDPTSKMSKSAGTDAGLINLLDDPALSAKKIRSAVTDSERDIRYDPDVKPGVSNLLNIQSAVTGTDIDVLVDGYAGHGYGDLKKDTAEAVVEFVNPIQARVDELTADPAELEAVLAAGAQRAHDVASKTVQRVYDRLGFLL
UniProt P9WNZ1, whole entry: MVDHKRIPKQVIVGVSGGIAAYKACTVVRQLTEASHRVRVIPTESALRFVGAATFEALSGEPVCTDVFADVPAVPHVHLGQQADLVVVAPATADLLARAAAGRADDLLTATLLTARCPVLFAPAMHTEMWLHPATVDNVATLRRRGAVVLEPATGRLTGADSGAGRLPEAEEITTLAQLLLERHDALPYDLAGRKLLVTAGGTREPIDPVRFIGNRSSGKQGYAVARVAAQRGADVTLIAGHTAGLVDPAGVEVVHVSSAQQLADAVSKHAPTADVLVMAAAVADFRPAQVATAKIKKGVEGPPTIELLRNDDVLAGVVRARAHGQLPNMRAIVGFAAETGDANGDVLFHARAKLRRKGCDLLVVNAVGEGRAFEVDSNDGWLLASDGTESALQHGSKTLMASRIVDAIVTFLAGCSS
UniProt Q8IDJ8, 1-583: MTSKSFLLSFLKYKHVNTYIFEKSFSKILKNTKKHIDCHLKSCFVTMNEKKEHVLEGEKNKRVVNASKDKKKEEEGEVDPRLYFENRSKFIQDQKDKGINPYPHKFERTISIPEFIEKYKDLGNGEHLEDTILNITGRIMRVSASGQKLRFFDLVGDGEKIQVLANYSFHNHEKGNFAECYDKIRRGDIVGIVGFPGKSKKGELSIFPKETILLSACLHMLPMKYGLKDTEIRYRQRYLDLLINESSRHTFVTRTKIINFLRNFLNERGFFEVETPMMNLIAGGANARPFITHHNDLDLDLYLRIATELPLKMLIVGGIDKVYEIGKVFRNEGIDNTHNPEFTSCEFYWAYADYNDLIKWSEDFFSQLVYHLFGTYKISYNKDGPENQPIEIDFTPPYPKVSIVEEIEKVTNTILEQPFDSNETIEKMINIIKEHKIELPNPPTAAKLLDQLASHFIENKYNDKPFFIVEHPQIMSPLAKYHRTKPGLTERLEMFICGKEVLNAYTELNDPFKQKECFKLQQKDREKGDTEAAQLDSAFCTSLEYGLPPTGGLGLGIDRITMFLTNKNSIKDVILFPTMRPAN

Data taken from ChEMBL document CHEMBL3988442, “University of Dundee, Small-Polar-MMV Screening Library” (2021).

Pks13 thioesterase: 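Polyketide synthase Pks13, Mycobacterium tuberculosis (UniProt I6X8D2). Enzyme assay of the thioesterase domain of polyketide synthase 13; the read-out is not stated. Tested at 30 µM. The record gives no direction; the compounds picked for IC50 retests had high values, so higher reads as stronger inhibition. About 67,000 compounds were tested under these conditions; 0.46% (about 300) showed 50% or more at least once.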
MtTrpRS: 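Tryptophan-tRNA ligase, Mycobacterium tuberculosis (UniProt P9WFT3). Enzyme assay of tryptophanyl-tRNA synthetase; the read-out is not stated. Tested at 10 µM. Direction is not recorded; retested compounds ran higher, which suggests that high means inhibition. About 65,000 compounds were tested under these conditions; 0.098% (about 64) showed 50% or more at least once.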
CoaBC: 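Coenzyme A biosynthesis protein CoaBC, Mycobacterium tuberculosis (UniProt P9WNZ1). Enzyme assay of CoaBC with a phosphate dye (Biomol Green) read at 650 nm. Concentration: 30 µM. Direction is inferred from only a few compounds that gave an IC50; most scored high, so higher reads as stronger inhibition. Most strong results did not repeat in a second test. Of about 67,000 compounds tested this way, about 40 (0.06%) reached 50% or more in at least one test.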
PfKRS1: 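Enzyme assay of the cytosolic lysyl-tRNA synthetase in 384-well plates, read by luminescence. Target: Lysine-tRNA ligase, Plasmodium falciparum 3D7 (UniProt Q8IDJ8). Concentration: 30 µM. Direction is inferred from only a few compounds that gave an IC50; most scored high, so higher reads as stronger inhibition. About 69,000 compounds were tested under these conditions; 0.071% (about 49) showed 50% or more at least once.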

The filed quantity is “Percent Effect” (%).
The record does not define 0% and 100%; most values in the screen are far below 50% and negative numbers occur (in some assays of this library far below -100).
Compounds were drawn at random from those tested, without regard to their results.
Two or more numbers in one place are separate tests of the same structure; such repeats can differ widely.
A dash means the value is not listed here; it may have been measured.

| compound | Pks13 thioesterase | MtTrpRS | CoaBC | PfKRS1 |
|---|---|---|---|---|
| `Cc1nc(C2(NCC(=O)NC(=O)Nc3ccccc3)CCCCC2)no1` | 0.7911 | 1.174 | 1.324 | -0.01163 |
| `CN(C)c1ncc(NC(=O)c2ccccc2C(F)(F)F)cn1` | 7.712 | 4.009 | -1.908 | 4.498 |
| `Cc1ncsc1-c1nnc(C2CCN(Cc3ccccc3F)CC2)o1` | 14.82 | - | -4.612 | -0.6442 |
| `Cc1cnn(C2CCCN(C(=O)Cc3cn4ccsc4n3)C2)c1` (stereo unspecified) | -14.16 | -4.679 | 2.368 | 0.261 |
| `COCCn1cncc1-c1nc2c([nH]1)CC(C)(C)CNC2=O` | 0.3112 | -3.249 | 2.664 | 0.4211 |
| `CC(C)CN1C[C@@H]2C(=O)N(C)C3(CCN(C(=O)C(C)C)CC3)[C@@H]2C1` | -25.73 | -5.255 | 3.053 | 3.166 |
| `COC[C@]1(O)CCN(c2cc(OC)ncn2)CC1(C)C` | -22.74 | 0.6415 | -16.45 | 3.716 |
| `CN(Cc1nnc(C2CC2)n1C)C1CCN(CCS(C)(=O)=O)C1` (stereo unspecified) | -3.296 | -1.481 | 1.576 | 3.436 |
| `CC(=O)NCc1ccc(S(=O)(=O)NC(=O)c2ccc3c(c2)COC3)s1` | -22.79 | 4.891 | 0.2198 | 7.879 |
| `Cc1nc([C@@H]2C[C@H]3CN(Cc4scnc4C)C[C@H]3O2)no1` | -2.532 | 0.2549 | 3.738 | 2.632 |
| `c1ccc(CN2CCN(c3ccc4nncn4n3)CC2)nc1` | -8.975 | 0.8702 | 6.691 | 2.033 |
| `O=C(c1sccc1C1CC1)N1CCCN(c2cccnn2)CC1` | -6.709 | -2.279 | 4.669 | 5.903 |
| `CN(C)c1nccc(C2CCCCN2Cc2cnn3cccnc23)n1` (stereo unspecified) | 0.3974 | -0.7752 | 38.35 and -0.5155 | 0.5677 |
| `CCOC1COC2(CCN(Cc3cccc(C)n3)CC2)C1` (stereo unspecified) | 10.37 | - | 0.7317 | 3.203 |
| `Cc1noc([C@@H]2C[C@H](NC(=O)NC3CCCCC3)CN2C)n1` | -24.36 | -1.745 | 9.492 | 4.01 |
| `CS(=O)(=O)CCNC(=O)c1cc2ccccc2nc1N1CCCC1` | -1.307 | 2.089 | -22.96 | 4.559 |
| `O=C(NC1CCC1)[C@@H]1C[C@@H]2CCN(Cc3cccs3)C[C@@H]2O1` | -32.5 | -0.8811 | -5.44 | 3.658 |
| `Cc1cc(S(C)(=O)=O)c(C)c(S(=O)(=O)NCC2CCC2)c1` | - | -0.7936 | 6.731 | 0.6402 |
| `Cc1ccc(CN2C[C@@H](C(=O)Nc3cccnc3)C[C@H]3OCC[C@H]32)o1` | -5.25 | 2.092 | 4.622 | -4.28 |
| `CN(C)C(c1ccccn1)[C@H]1CC[C@H](CNC(=O)C2CC2)CC1` (stereo partly specified) | 6.554 | -6.078 | -6.012 | 1.059 |
| `CC1CN(CC(=O)Nc2ccncc2)CCN1Cc1nccn1C` (stereo unspecified) | -4.224 | -2.129 | 8.344 | -0.4381 |
| `COC(=O)c1ccc(N2CCN(C(=O)c3ccncc3)C(C)C2)cc1` (stereo unspecified) | -15.71 | 0.8655 | 7.969 | 6.838 |
| `COCC1CN(Cc2ccncc2)Cc2nn(C)cc21` (stereo unspecified) | -11.47 | -3.285 | -1.826 | -2.099 |
| `COC(=O)CCN1CCCC1c1cccc2c1OCCO2` (stereo unspecified) | -10.29 | -1.599 | -7.589 | -0.6897 |
| `Cc1ccc(-c2nc(CN3CCc4nn(C)c(=O)cc4C3)no2)cc1` | 17.19 | -2.269 | 0.5931 | -0.2167 |
| `COCC(=O)N1CCN(C(=O)C2CCCCC2)[C@@H](C(=O)OC)C1` | 15.39 | -0.9916 | 8.055 | 2.923 |
| `OC(c1ccccn1)C1CCN(Cc2cc3n(n2)CCCNC3)CC1` (stereo unspecified) | -19.76 | 2.288 | 3.308 | 5.501 |
| `CN(Cc1cccnc1)Cc1cn2c(n1)CN(C1CCOC1)CC2` (stereo unspecified) | -19.32 | -0.9982 | -3.704 | 0.5556 |
| `CCC(CO)N(Cc1ccco1)C(=O)c1cccnc1NC` (stereo unspecified) | -24.72 | 1.911 | -13.79 | 4.72 |
| `CCc1nc2n(n1)CC(NCC(=O)Nc1oc(C)c(C)c1C#N)CC2` (stereo unspecified) | -3.73 | -7.025 | 6.122 | -1.424 |
| `O=C(Cc1ccco1)N1C[C@@H]2COC[C@]2(COCC2CCOCC2)C1` | -3.331 | -8.258 | 2.709 | 10.21 |
| `O=C(NCc1cccnc1)N1CCc2ncnc(C3CC3)c2CC1` | -20.42 | -2.139 | -5.882 | 0.8957 |
| `CC(C)(C)C(=O)NCCNCc1ccc(Cl)c2cccnc12` | -14.25 | -0.09099 | -11.24 | 0.5666 |
| `COCCNC(=O)Cn1cc(OCc2ccc(F)cc2)c(=O)cc1C` | -29.51 | -1.854 | -0.7663 | 2.367 |
| `O=C(Cc1ccc2c(c1)OCCO2)NC1CCCCC1` | -16.54 | -0.1298 | -2.273 | 1.237 |
| `Cc1cc(C(=O)N2CCCC(n3cccn3)C2)c(C)n1C1CC1` (stereo unspecified) | -21.56 | 1.988 | -9.92 | 0.335 |
| `Cc1nc(CN2CCCC(NCCOc3cccc(C#N)c3)C2)no1` (stereo unspecified) | -11.61 | -9.971 | 0 | 1.46 |
| `CC(C)Oc1cccc(C(O)CNC(=O)NCc2cccs2)c1` (stereo unspecified) | -19.04 | -1.481 | 4.727 | 3.149 |
| `COCC(NC(=O)c1cnc(-c2ccncc2)nc1)c1ccnn1C` (stereo unspecified) | 18.95 | 1.93 | 4.962 | 4.019 |
| `O=C(c1cc2c(s1)CCOC2)N1CCCCC1Cn1cccn1` (stereo unspecified) | -4.76 | -6.383 | 4.47 | 2.195 |
| `Cc1nc(CN2C(=O)C[C@@H]3[C@@H]2CCN3CC2CCOCC2)cs1` | 10.61 | 0.53 | 6.947 | 0.5622 |

Repeated from the top, 3 entries:

compound,Pks13 thioesterase,MtTrpRS,CoaBC,PfKRS1
Cc1nc(C2(NCC(=O)NC(=O)Nc3ccccc3)CCCCC2)no1,0.7911,1.174,1.324,-0.01163
CN(C)c1ncc(NC(=O)c2ccccc2C(F)(F)F)cn1,7.712,4.009,-1.908,4.498
Cc1ncsc1-c1nnc(C2CCN(Cc3ccccc3F)CC2)o1,14.82,-,-4.612,-0.6442